Results published in publication PMC10881024.
Results are given in words; binding and its absence hold for the method and conditions named. Sequences can lack the tags named with a protein.

T1: human FCRL3 (MAIA) entire ectodomain, biotinylated, rat Cd4 domains 3 and 4 tagged (bait construct) (human) (UniProt Q96P31)
T1 sequence (chain, enzymatically biotinylated (BirA) on the biotinylation target sequence): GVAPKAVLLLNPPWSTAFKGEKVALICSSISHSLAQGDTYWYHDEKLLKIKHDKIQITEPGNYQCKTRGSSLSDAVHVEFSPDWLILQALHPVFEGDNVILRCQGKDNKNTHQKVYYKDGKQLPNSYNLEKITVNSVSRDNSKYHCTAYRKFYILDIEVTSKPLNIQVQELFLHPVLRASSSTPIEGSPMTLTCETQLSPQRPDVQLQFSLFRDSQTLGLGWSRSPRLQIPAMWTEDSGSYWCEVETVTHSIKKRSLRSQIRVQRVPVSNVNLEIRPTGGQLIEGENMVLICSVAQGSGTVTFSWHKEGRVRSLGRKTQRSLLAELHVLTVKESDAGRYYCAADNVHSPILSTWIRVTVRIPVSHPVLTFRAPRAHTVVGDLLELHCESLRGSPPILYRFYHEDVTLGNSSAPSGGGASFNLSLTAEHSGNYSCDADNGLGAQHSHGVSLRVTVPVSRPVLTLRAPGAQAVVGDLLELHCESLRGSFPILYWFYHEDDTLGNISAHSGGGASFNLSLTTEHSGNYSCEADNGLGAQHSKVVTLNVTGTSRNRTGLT


Target: T1, human FCRL3 (MAIA) entire ectodomain, biotinylated, rat Cd4 domains 3 and 4 tagged (bait construct) (human)
Assay: SAVEXIS; purified monomeric biotinylated baits at 13.4 nM captured on streptavidin-coated plates 16 hours at 4°C; preys made multimeric by clustering biotinylated monomers around streptavidin-HRP, 4.4 nM, 1 hour at room temperature; HBS-T washes with desthiobiotin; tetramethylbenzidine, absorbance at 650 nm; both purified

| Binder | binding |
| --- | --- |
| human SPACA6 ectodomain, biotinylated, rat Cd4 domains 3 and 4 tagged (domain or fragment, UniProt W5XKT8 27-295, enzymatically biotinylated (BirA) on the biotinylation target sequence) CLLCFTTYSERLRICQMFVGMRSPKLEECEEAFTAAFQGLSDTEINYDERSHLHDTFTQMTHALQELAAAQGSFEVAFPDAAEKMKKVITQLKEAQACIPPCGLQEFARRFLCSGCYSRVCDLPLDCPVQDVTVTRGDQAMFSCIVNFQLPKEEITYSWKFAGGGLRTQDLSYFRDMPRAEGYLARIRPAQLTHRGTFSCVIKQDQRPLARLYFFLNVTGPPPRAETELQASFREVLRWAPRDAELIEPWRPSLGELLARPEALTPSNL | no binding (tested: 4.4 nM multimeric prey) |
| human TMEM81 ectodomain, biotinylated, rat Cd4 domains 3 and 4 tagged (domain or fragment, UniProt Q6P7N7 31-226, enzymatically biotinylated (BirA) on the biotinylation target sequence) IPEKLQEAVGKVIINATTCTVTCGLGYKEETVCEVGPDGVRRKCQTRRLECLTNWICGMLHFTILIGKEFELSCLSSDILEFGQEAFRFTWRLARGVISTDDEVFKPFQANSHFVKFKYAQEYDSGTYRCDVQLVKNLRLVKRLYFGLRVLPPNLVNLNFHQSLTEDQKLIDEGLEVNLDSYSKPHHPKWKKKVAS | no binding (tested: 4.4 nM multimeric prey) |
